The list shows a part of the results. The main result of the screen is listed elsewhere. These columns were measured beside it and carry no call. Compounds called inactive in the main read-out are mostly missing here. Words in brackets tell the shape of the fitted curve; partial curves, single points and poor fits give uncertain potencies.
Experiment: qHTS Assay for Modulators of Lamin A Splicing
Settings: HeLa LMNA splicing GFP/RFP minigene ratio, 48 h
Procedure, shortened: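 Read-out is the ratio of GFP to DsRed2 object intensity, acquired by 488 nm laser-scanning cytometry on HeLa lamin A-EGFP minigene reporter cells. Compound incubation 48 hrs at 37 °C in Opti-MEM with 2% FBS; DMSO 0.5% final.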

[1] = measured here: RFP viability control channel
[2] = measured here: GFP splicing reporter channel

| Structure (SMILES) | AC50 [1] | AC50 [2] |
| --- | --- | --- |
| COc1ccc(C(=O)/C=C/c2cn(CC(O)CN3CCOCC3)c3ccccc23)cc1 (stereo not given) | 4.47 µM [rising, partial curve] | – |
| CCCN(CCC)S(=O)(=O)c1ccc(C(=O)Nc2nnc(CSC)o2)cc1 | 3.55 µM [rising, single point] | – |
| COc1ccc(N2CCN(C(=O)c3cc4c(-c5cccc(OC)c5)nn(C)c4s3)CC2)cc1 | 12.6 µM [rising, single point] | – |
| COc1cccc(/C=N/NC(=O)CN(C2=NS(=O)(=O)c3ccccc32)c2ccccc2)c1 | 0.0224 µM [rising, full curve, poor fit] | 0.0224 µM [rising, full curve, poor fit] |
| CCOC(=O)c1ccc(NC(=O)Cn2nnc3ccccc32)cc1 | 35.5 µM [rising, single point] | – |
| COC(=O)c1sccc1NN1C(=O)c2ccccc2C1=O | – | 12.6 µM [rising, partial curve] |
| Cc1ccc(C(=O)NC2c3ccccc3-c3ccccc32)cc1 | 2.82 µM [rising, full curve] | – |
| O=C(Cc1cnn(-c2ccccc2)c1)c1ccc(O)c(O)c1O | 31.6 µM [rising, single point] | 31.6 µM [rising, single point] |
| O=C(Cn1nnc(-c2ccc(CN3CCOCC3)cc2)n1)Nc1nc(-c2ccccc2)cs1 | 31.6 µM [rising, single point] | 31.6 µM [rising, single point] |
| CCOc1ccccc1C1N=C(c2ccc(OC)cc2)CC(c2ccccc2O)N1 (stereo not given) | 15.8 µM [falling, single point] | 14.1 µM [falling, partial curve] |
| CNC1C(OC2C(O[C@@H]3C(O)C(O)[C@@H](N=C(N)N)C(O)C3N=C(N)N)OC(C)[C@@]2(O)CO)OC(CO)C(O)C1O (stereo not given in full) | 35.5 µM [falling, single point] | 0.0251 µM [falling, full curve, poor fit] |
| Cc1nn(-c2cccc(C(F)(F)F)c2)c(Cl)c1/C=N/Nc1cccc(C(=O)O)c1 | – | 11.2 µM [rising, partial curve] |
| COc1ccc(/C=N/N(Cc2ccccc2)c2ccccc2)cc1O | 35.5 µM [rising, single point] | – |
| COc1ccc(-c2csc3ncnc(Nc4cc(OC)cc(OC)c4)c23)cc1 | – | 17.8 µM [falling, single point] |
| CC(C)c1ccc(NC(=O)Cn2cc(S(=O)(=O)Cc3ccccc3Cl)c3ccccc32)cc1 | – | 1.78 µM [falling, full curve] |

Another view of part of the listing above:
Structure (SMILES)	AC50 [1]	AC50 [2]
Cc1ccc(C(=O)NC2c3ccccc3-c3ccccc32)cc1	2.82 µM [rising, full curve]	–
O=C(Cc1cnn(-c2ccccc2)c1)c1ccc(O)c(O)c1O	31.6 µM [rising, single point]	31.6 µM [rising, single point]

— PubChem BioAssay AID1487 (National Center for Advancing Translational Sciences (NCATS), 2009)
